# Source: the supplement of paper PMC10849652
# Protein sequences, listed by entry. Tags and fused reporters are not part of them. Lines headed by an entry give the natural chain unless they say otherwise; changes in a name come on top.
# UniProt O95429: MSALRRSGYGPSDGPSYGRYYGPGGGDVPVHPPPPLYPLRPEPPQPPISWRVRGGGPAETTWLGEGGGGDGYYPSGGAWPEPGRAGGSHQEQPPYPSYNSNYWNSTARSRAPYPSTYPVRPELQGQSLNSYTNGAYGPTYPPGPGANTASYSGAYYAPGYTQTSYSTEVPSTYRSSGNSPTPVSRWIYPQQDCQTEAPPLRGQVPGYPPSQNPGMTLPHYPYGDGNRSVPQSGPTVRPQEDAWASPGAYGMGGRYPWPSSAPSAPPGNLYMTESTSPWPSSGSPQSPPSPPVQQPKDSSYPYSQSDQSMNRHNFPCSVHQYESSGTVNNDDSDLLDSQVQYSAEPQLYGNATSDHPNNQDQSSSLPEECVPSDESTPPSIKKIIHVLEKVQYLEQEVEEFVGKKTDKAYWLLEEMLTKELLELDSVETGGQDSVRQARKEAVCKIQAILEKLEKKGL
# UniProt Q92934: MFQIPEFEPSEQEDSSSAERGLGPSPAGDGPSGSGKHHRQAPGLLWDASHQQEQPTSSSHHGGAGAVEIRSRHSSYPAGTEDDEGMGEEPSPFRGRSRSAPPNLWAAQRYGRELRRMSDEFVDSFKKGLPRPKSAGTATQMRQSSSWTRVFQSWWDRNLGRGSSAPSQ
# UniProt Q96GS4: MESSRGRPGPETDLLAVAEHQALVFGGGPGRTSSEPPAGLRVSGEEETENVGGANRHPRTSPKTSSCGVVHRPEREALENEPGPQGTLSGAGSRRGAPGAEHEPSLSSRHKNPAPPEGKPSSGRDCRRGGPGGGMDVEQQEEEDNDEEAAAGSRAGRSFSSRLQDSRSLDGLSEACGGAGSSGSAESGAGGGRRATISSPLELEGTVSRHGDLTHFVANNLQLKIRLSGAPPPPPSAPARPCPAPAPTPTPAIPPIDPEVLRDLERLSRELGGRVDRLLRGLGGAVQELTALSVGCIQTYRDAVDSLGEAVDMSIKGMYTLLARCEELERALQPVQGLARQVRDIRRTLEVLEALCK
# UniProt P51572: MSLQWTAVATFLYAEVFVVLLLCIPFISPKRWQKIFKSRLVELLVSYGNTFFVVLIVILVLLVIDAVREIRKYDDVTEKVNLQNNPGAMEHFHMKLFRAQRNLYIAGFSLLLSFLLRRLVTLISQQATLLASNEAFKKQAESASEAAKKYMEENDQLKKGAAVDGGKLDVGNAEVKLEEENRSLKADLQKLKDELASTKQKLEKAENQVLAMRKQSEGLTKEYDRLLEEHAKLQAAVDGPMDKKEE
# UniProt O95816: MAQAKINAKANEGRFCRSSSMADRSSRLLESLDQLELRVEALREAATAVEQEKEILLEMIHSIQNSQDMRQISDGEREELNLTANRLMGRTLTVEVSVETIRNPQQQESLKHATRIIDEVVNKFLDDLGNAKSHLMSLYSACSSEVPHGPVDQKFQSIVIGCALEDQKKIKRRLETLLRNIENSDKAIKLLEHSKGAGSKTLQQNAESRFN
# UniProt Q9UL15: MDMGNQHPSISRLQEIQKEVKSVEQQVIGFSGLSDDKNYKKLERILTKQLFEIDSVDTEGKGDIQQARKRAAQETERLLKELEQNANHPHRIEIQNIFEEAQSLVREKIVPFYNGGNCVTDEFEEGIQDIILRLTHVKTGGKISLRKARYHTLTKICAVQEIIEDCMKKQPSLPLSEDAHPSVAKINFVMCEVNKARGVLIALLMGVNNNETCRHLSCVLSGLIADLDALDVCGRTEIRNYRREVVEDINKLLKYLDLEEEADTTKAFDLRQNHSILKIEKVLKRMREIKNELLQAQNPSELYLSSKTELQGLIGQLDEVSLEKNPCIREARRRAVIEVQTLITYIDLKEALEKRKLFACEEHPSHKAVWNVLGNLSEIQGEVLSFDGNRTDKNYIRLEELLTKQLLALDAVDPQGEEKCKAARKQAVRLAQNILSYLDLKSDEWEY
# UniProt P07738: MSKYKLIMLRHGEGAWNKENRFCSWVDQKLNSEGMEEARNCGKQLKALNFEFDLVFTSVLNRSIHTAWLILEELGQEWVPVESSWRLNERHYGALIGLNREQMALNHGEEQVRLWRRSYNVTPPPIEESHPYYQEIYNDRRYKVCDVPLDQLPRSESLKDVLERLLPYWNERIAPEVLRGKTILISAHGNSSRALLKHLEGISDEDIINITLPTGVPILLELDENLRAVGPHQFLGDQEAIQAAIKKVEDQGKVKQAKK
# UniProt Q96GX2: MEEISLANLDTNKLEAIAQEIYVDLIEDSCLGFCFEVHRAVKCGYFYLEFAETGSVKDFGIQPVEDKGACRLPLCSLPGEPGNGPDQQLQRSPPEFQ
# UniProt P55957: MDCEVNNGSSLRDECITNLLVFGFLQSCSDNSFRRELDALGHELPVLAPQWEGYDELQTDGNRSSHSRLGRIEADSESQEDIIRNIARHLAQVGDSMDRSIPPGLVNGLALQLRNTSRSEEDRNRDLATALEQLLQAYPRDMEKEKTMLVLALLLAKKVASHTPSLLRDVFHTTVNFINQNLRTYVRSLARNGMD
# UniProt Q9NW68: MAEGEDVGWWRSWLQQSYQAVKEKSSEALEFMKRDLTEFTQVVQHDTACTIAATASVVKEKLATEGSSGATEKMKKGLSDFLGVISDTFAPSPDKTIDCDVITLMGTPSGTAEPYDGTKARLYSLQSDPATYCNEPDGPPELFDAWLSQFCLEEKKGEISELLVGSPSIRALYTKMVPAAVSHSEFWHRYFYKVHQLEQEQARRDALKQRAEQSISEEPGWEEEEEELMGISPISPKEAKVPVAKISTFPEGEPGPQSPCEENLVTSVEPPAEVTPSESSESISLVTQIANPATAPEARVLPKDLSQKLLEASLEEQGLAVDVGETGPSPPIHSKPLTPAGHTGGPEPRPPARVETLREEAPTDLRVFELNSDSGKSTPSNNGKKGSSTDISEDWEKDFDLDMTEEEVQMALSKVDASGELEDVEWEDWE
# UniProt Q9UHQ4: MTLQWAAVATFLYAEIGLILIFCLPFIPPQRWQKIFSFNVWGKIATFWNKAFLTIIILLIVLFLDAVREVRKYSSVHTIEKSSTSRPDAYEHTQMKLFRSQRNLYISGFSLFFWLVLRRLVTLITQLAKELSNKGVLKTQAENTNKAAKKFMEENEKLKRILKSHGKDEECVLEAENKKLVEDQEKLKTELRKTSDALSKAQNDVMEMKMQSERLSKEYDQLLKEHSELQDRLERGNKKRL
# UniProt Q9H3K6: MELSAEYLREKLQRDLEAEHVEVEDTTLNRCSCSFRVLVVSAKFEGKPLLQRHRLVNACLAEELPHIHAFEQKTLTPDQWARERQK
# UniProt Q9NYF8, whole entry, looked up: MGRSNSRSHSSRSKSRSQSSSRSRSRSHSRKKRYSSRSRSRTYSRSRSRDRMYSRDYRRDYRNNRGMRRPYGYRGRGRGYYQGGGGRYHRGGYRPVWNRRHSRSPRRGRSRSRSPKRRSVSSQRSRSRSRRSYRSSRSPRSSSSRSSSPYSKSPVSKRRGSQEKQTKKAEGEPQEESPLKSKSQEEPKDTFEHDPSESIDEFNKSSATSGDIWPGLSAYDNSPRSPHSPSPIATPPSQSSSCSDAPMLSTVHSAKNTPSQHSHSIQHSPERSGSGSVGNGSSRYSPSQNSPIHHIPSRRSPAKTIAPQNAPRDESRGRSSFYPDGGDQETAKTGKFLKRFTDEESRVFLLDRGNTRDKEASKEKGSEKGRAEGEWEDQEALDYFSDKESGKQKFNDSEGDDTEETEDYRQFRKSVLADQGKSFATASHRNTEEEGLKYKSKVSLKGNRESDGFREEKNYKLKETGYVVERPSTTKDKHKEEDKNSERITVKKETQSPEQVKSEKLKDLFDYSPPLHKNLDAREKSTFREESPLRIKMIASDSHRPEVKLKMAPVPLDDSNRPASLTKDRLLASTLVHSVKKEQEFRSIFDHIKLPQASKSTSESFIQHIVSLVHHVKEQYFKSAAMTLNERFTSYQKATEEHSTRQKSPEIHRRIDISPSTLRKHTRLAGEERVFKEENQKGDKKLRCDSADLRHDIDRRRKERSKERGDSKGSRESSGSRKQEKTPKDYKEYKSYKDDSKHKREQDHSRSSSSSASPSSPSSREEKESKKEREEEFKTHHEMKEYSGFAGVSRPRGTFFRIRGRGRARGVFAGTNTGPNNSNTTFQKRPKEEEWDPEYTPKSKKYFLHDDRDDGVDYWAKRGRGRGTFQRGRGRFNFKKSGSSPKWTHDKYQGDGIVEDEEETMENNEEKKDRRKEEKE
# UniProt O75531: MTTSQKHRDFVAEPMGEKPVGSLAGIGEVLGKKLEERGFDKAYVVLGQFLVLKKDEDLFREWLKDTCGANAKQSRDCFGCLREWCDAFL
# UniProt Q9UQB8: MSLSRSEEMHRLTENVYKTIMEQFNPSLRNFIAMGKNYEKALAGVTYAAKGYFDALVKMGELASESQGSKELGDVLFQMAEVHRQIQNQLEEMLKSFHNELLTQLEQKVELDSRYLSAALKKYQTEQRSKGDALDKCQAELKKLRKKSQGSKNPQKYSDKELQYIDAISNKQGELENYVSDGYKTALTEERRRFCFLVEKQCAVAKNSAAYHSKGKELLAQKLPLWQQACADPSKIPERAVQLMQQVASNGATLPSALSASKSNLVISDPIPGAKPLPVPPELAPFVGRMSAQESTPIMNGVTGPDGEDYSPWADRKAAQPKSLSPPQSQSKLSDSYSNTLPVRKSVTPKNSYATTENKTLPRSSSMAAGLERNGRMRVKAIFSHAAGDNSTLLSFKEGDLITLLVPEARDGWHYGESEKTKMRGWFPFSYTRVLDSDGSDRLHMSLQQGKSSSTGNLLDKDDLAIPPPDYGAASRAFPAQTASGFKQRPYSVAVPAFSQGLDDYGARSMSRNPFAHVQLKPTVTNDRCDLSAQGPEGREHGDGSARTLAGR
# UniProt Q6QNY1: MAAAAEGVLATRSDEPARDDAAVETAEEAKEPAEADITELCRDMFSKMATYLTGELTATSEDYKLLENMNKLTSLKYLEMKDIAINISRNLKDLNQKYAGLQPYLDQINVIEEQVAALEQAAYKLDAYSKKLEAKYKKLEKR
# UniProt P21953: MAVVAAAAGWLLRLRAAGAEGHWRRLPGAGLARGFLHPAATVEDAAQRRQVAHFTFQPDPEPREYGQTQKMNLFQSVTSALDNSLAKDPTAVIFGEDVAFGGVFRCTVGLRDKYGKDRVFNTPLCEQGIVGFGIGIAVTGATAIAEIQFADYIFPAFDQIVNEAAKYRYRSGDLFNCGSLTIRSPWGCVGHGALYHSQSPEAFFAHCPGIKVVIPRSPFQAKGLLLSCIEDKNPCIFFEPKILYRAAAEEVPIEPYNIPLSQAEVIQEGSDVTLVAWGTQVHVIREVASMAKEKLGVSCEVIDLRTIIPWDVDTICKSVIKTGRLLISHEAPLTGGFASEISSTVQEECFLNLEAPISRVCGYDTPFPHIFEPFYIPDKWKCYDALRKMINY
# UniProt P12694: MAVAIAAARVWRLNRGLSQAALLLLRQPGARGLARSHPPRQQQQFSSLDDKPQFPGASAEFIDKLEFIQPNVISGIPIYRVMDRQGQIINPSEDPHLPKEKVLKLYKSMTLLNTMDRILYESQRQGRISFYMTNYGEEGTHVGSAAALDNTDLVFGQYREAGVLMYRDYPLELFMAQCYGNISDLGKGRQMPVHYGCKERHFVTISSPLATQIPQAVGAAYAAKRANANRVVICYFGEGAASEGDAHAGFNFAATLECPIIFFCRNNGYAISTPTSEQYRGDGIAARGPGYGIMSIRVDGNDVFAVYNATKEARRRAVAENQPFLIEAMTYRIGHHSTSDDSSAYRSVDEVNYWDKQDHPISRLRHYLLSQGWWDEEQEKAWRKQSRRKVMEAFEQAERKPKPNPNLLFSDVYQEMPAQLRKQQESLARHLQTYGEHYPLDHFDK
# UniProt Q9NY97: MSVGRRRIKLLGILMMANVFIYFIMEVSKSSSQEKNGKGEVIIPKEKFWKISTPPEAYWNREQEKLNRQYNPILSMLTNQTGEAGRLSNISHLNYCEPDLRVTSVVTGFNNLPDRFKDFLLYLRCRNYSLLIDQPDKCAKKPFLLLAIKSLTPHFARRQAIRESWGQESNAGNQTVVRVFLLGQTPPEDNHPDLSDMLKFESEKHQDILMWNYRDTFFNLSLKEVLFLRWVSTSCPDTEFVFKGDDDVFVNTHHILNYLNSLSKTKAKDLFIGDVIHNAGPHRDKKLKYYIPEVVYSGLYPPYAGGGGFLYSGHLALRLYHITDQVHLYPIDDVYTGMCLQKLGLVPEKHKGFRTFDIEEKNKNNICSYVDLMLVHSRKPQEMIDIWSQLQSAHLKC
# UniProt P54687: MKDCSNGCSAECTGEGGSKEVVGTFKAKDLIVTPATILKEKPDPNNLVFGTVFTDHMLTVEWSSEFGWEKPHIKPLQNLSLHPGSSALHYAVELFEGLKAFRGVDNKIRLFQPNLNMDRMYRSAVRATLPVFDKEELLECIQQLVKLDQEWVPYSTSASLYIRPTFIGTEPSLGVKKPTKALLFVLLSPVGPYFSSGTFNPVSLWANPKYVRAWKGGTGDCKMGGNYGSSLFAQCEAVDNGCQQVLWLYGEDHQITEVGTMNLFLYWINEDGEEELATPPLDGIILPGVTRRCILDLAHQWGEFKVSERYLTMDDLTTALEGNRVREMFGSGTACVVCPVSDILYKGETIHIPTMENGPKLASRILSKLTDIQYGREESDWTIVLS
# UniProt Q8WUW1: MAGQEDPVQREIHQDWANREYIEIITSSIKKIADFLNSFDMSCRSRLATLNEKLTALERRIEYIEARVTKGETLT
# The other results are listed elsewhere or left out. Residues, ends and D or L forms follow the SMILES beside them. *: point of attachment. Cbz = O=C(OCc1ccccc1)*
# What was measured:
# Experiment in all cases: log2 fold change, soluble protein after heating vs DMSO (PISA); higher = thermal stabilisation; K562 cells, 10 uM, 30 min; active = over 0.2 and 3.5 SD of the protein, either way, in both replicates (recomputed)
# IRAK-1-4 Inhibitor I = compound: C1COCCN1CCN2C3=CC=CC=C3N=C2NC(=O)C4=CC(=CC=C4)[N+](=O)[O-] [IRAK-1-4 Inhibitor I]
# In short: (§1)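 K562 cells at 2×10^6 cells/mL were given 10 μM compound for 30 min. Aliquots then went through 3 min of heating across 48°C-58°C, were pooled, and were extracted in PBS with 0.5% NP-40 at 4°C, and the supernatant after 21,000xg for 90 min was quantified by TMTpro 16plex LC-MS/MS with channel sums equalised. Thermal stability relative to control samples, from duplicates, is given as log2 fold change.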
# ibrutinib = compound: C=CC(=O)N1CCC[C@@H](n2nc(-c3ccc(Oc4ccccc4)cc3)c3c(N)ncnc32)C1 [ibrutinib]
# In short: as §1
# [1] = compound: CC(=O)c1cnc2ccc(-c3cc(Cl)c(O)c(Cl)c3)nc2c1N[C@H]1CC[C@H](CN(C)C)CC1
# In short: as §1
# ralimetinib = compound: CC(C)(C)Cn1c(N)nc2ccc(-c3[nH]c(C(C)(C)C)nc3-c3ccc(F)cc3)nc21 [ralimetinib]
# In short: as §1
# [2] = compound: CC(C)(O)CC(=O)NCCn1ccc2ncnc(Nc3ccc(Oc4cccc(C(F)(F)F)c4)c(Cl)c3)c21
# In short: as §1
# [3] = compound: CC(C)C1=C2N=C(C=C(N2N=C1)NCC3=CC=CC=C3)NCCCCCCN
# In short: as §1
# [4] = compound: CC(C)C[C@@H](C=O)NC(=O)[C@H](CC(C)C)NC(=O)[C@H](CC(C)C)NC(=O)OCc1ccccc1
# In short: as §1
# pinometostat = compound: CC(C)N(C[C@H]1O[C@@H](n2cnc3c(N)ncnc32)[C@H](O)[C@@H]1O)[C@H]1C[C@@H](CCc2nc3cc(C(C)(C)C)ccc3[nH]2)C1 [pinometostat]
# In short: as §1
# [5] = compound: CC1=C(C(CC(=O)N1)C2=CC=C(C=C2)C(F)(F)F)C(=O)NC3=C(C=C4C(=C3)C=NN4)F
# In short: as §1
# [6] = compound: CC1=C(C2=C(C=C1)C(=O)C3=CC=CC=C3N2CCCN)C
# In short: as §1
Target,log2 fold change (IRAK-1-4 Inhibitor I),log2 fold change (ibrutinib),log2 fold change [1],log2 fold change (ralimetinib),log2 fold change [2],log2 fold change [3],log2 fold change [4],log2 fold change (pinometostat),log2 fold change [5],log2 fold change [6]
BAG4 (UniProt O95429),inactive: -0.005,inactive: -0.016,inactive: -0.127,inactive: 0.008,inactive: 0.056,inactive: -0.08,inactive: -0.028,inactive: -0.026,inactive: -0.011,inactive: -0.111
BAD (UniProt Q92934),inactive: 0.057,inactive: 0.024,inactive: -0.061,inactive: -0.054,inactive: 0.077,inactive: -0.04,inactive: -0.041,inactive: 0.012,–,–
BORCS6 (UniProt Q96GS4),inactive: 0.023,inactive: -0.028,inactive: -0.001,inactive: -0.037,inactive: -0.037,inactive: -0.119,inactive: -0.019,inactive: -0.042,inactive: 0.15,inactive: 0.037
BCAP31 isoform 2 (UniProt P51572),inactive: 0.055,inactive: -0.013,inactive: 0.008,inactive: -0.049,inactive: 0.029,inactive: 0.057,inactive: 0.019,inactive: -0.04,inactive: 0,inactive: -0.027
BAG2 (UniProt O95816),inactive: -0.022,inactive: 0.039,inactive: 0.145,inactive: 0.12,inactive: 0.103,inactive: -0.039,inactive: 0.072,inactive: 0.289,inactive: 0.013,inactive: -0.074
BLOC1S1 (UniProt P78537),inactive: 0,inactive: -0.001,inactive: -0.03,inactive: -0.058,inactive: -0.188,inactive: -0.032,inactive: -0.056,inactive: -0.07,inactive: -0.078,inactive: 0.104
BRCC3 (UniProt P46736),inactive: 0.01,inactive: -0.011,inactive: -0.026,inactive: -0.03,inactive: -0.019,inactive: 0.072,inactive: -0.009,inactive: 0.047,inactive: 0.027,inactive: 0.061
BLOC1S6 (UniProt Q9UL45),inactive: -0.058,inactive: -0.031,inactive: 0.035,inactive: -0.055,inactive: -0.183,inactive: -0.041,inactive: 0.027,inactive: -0.063,inactive: 0.119,inactive: 0
BAG5 isoform 2 (UniProt Q9UL15),inactive: 0.037,inactive: 0.01,inactive: -0.038,inactive: 0.003,inactive: 0.005,inactive: 0.019,inactive: 0.004,inactive: 0.032,inactive: -0.084,inactive: 0.063
BNIP1 (UniProt Q12981),inactive: 0.032,inactive: -0.021,inactive: -0.023,inactive: -0.026,inactive: 0.002,inactive: -0.11,inactive: -0.005,inactive: 0.011,inactive: 0.019,inactive: 0.088
BPGM (UniProt P07738),inactive: 0,inactive: 0.038,inactive: -0.019,inactive: 0.027,inactive: -0.022,inactive: 0.038,inactive: 0,inactive: -0.078,inactive: 0.02,inactive: 0.017
ATXN7L3B (UniProt Q96GX2),inactive: -0.001,inactive: 0.01,inactive: -0.009,inactive: -0.095,inactive: 0,inactive: 0.058,inactive: 0,inactive: 0.015,inactive: 0.028,inactive: 0.085
BID isoform 2 (UniProt P55957),inactive: 0.052,inactive: 0.008,inactive: -0.039,inactive: -0.038,inactive: -0.053,inactive: 0.105,inactive: 0.012,inactive: -0.018,–,inactive: 0.074
BSDC1 (UniProt Q9NW68),inactive: 0.057,inactive: 0.025,inactive: 0.06,inactive: 0.042,inactive: 0.009,inactive: 0.004,inactive: 0.014,inactive: -0.026,inactive: 0.051,inactive: -0.089
AURKA (UniProt O14965),inactive: -0.05,inactive: 0.193,active: 0.914,inactive: 0.062,inactive: -0.056,inactive: -0.128,inactive: 0.16,inactive: 0.033,–,inactive: 0.059
BCAP29 isoform 2 (UniProt Q9UHQ4),inactive: 0.051,inactive: -0.014,inactive: 0.011,inactive: -0.094,inactive: 0.111,inactive: -0.106,inactive: 0.007,inactive: -0.012,–,inactive: 0.052
BOLA2 (UniProt Q9H3K6),inactive: 0.021,inactive: -0.017,inactive: -0.014,inactive: -0.02,inactive: -0.025,inactive: -0.052,inactive: -0.007,inactive: -0.035,inactive: -0.031,inactive: 0.085
BCLAF1 (UniProt Q9NYF8),inactive: -0.265,inactive: 0.016,active: -0.503,inactive: 0.124,inactive: 0.094,inactive: -0.353,inactive: -0.027,inactive: -0.039,–,inactive: -0.076
AZGP1 (UniProt P25311),inactive: -0.023,inactive: 0.166,inactive: -0.164,inactive: 0.071,inactive: 0.253,inactive: 0.515,inactive: -0.27,inactive: -0.212,inactive: -0.622,inactive: 0.721
BANF1 (UniProt O75531),inactive: -0.019,inactive: -0.037,inactive: 0.024,inactive: -0.098,inactive: -0.12,inactive: 0.081,inactive: -0.044,inactive: -0.064,inactive: 0.097,inactive: 0.202
BAIAP2 (UniProt Q9UQB8),inactive: -0.016,inactive: -0.032,active: -0.265,inactive: -0.034,inactive: -0.033,inactive: -0.056,inactive: 0.062,inactive: 0,–,inactive: 0.041
BLOC1S2 (UniProt Q6QNY1),inactive: -0.034,inactive: -0.001,inactive: 0.026,inactive: -0.042,inactive: 0.032,inactive: 0.09,inactive: 0.042,inactive: 0.053,inactive: 0.011,inactive: 0.043
B3GLCT (UniProt Q6Y288),inactive: -0.041,inactive: -0.048,inactive: 0.017,inactive: 0,inactive: -0.061,inactive: 0,inactive: 0.069,inactive: 0.006,inactive: 0.032,inactive: 0.026
BIRC5 (UniProt O15392),inactive: 0.044,inactive: -0.017,inactive: -0.174,inactive: 0.051,inactive: 0.018,inactive: 0.097,inactive: 0.066,inactive: 0.054,inactive: -0.059,inactive: -0.081
BCKDHB (UniProt P21953),inactive: 0.072,inactive: -0.039,inactive: 0.071,inactive: 0.015,inactive: -0.008,inactive: -0.031,inactive: 0.016,inactive: 0.019,inactive: 0.068,inactive: -0.034
BCKDHA (UniProt P12694),inactive: 0.07,inactive: 0.005,inactive: 0.041,inactive: -0.008,inactive: -0.017,inactive: 0.028,inactive: 0.036,inactive: 0.032,inactive: -0.001,inactive: 0.081
BECN1 (UniProt Q14457),inactive: -0.003,inactive: -0.018,inactive: 0.003,inactive: -0.004,inactive: -0.011,inactive: -0.031,inactive: -0.015,inactive: -0.032,–,inactive: 0.084
B3GNT2 (UniProt Q9NY97),inactive: -0.019,inactive: 0.027,inactive: 0.02,inactive: -0.035,inactive: -0.06,inactive: -0.07,inactive: 0.014,inactive: 0.045,inactive: 0.006,inactive: -0.12
BCAT1 (UniProt P54687),inactive: 0.046,inactive: -0.005,inactive: -0.009,inactive: -0.063,inactive: 0.009,inactive: 0.034,inactive: -0.02,inactive: -0.013,inactive: -0.015,inactive: 0.007
BRK1 isoform 2 (UniProt Q8WUW1),inactive: -0.026,inactive: -0.004,inactive: -0.045,inactive: -0.037,inactive: -0.018,inactive: 0.058,inactive: -0.053,inactive: -0.157,–,inactive: 0.145
